In the supplement of paper PMC5949888:
Most values lie at the floor of the assay. Slopes are relative: functional sequences can read slightly below zero.

The substances below were run on Saccharomyces cerevisiae PS128 hsf1 delta, HSF1(1-493) fusion (assay: growth estimate (transactivation domain function in HSF1 fusion, heat-shock survival) (a.u. (slope of normalised read count over time)); higher = stronger growth at 37°C, i.e. more transactivation activity). Conditions: library: random library.
Description: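 Random 60-nt DNA library encoding peptides of up to 20 aa, fused to the C-terminus of yeast HSF1 residues 1-493 (C-terminal TAD deleted) and expressed from the native HSF1 promoter on a CEN plasmid in hsf1-deleted S. cerevisiae PS128. Cells were selected at 37°C on -trp 5-FOA plates for 0, 2, 4, 6 and 8 days and amplicons were sequenced. Growth estimate is the slope of a robust linear fit of total-sum-normalised read counts (normalised to the first time point) over time, using at least 2 replicates. Sequences are classed functional (TAD activity) above a threshold of -0.13, set from stop-codon control sequences.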

Substance | growth estimate
LKGHLG | < -0.25
KNMLVYSTGR | < -0.25
LVHGE | < -0.25
TLRAPS | < -0.25
SNHKRSLPQ | < -0.25
ISDGVRLVAGFMVTYLVAPF | < -0.25
TLRHLQLRRVKLISGRYPAR | < -0.25
NPGGGARLEFLKYAKSR | < -0.25
QCHFGICAGIDQLGVHA | < -0.25
VPVIYA | < -0.25
REYYTKTWQYRDPAHV | < -0.25
QYGVTSRY | < -0.25
TRSDGPGPSSDSPESHSWRS | < -0.25
ETHYGV | < -0.25
TRSGGSIFLVMRGRGFDGNC | < -0.25
KAVQPRSRISISRMSLNQPR | < -0.25
FHRCGPHTARWKCEIRVYST | < -0.25
HLLRKVFLVEILNRSTVRMP | < -0.25
VLDTVPVSIRGLKK | < -0.25
RVYNGYSCKLE | < -0.25
LDHRKQRDANLVGVWSSNHQ | 0.0071
QTVNATGRARQSRTIPSTQA | < -0.25
NPFFGESRQDGLTRGS | < -0.25
SKVRLRGAMNLL | -0.231
VPESKRLHGAVPRSHQRITY | < -0.25

Substance | growth estimate
SVSREYRRAPSLICVWI | < -0.25
VIKGAADLRDVHSVGIEPWG | < -0.25
TILKGGTVLLLKNQYDELRT | < -0.25
LLHACLSI | < -0.25
FNG | < -0.25
AWQRRRFDFFI | < -0.25
RCKILIDISVRPKTP | < -0.25
FSSGKWGLCRRHGFSRMVCS | < -0.25
MSDVRCDGSREMRAAI | < -0.25
QGLGP | < -0.25
GVRS | < -0.25
GLTAVCSNS | < -0.25
TYASDNRVR | < -0.25
LGGMLNLKTPISLRVVVTQN | < -0.25
ICMNVAATAIGKGNTR | < -0.25
QEMYILPGGPGPPAGLKIRG | < -0.25
EGVSTHEVGR | < -0.25
AFHVKRTNRRPT | < -0.25
PVFAGSCRVAV | < -0.25
LLKFVCSKAYNASMWQPSGQ | < -0.25
SSWKACANANAGGRSRTVQP | < -0.25
TAGLGLSDSEVVRLR | < -0.25
VRDPEVTCPGGAKTFGVTRS | < -0.25
VED | -0.25
CLCPILVPE | -0.198

Substance | growth estimate
GRRTFGS | < -0.25
TYEMIRTNIFCIGARRLIHT | < -0.25
YRVIWCHAGFRTLPRVNVVC | < -0.25
NERGGRICGRHLEIAHLLEP | < -0.25
RILSERFPTAGPRYHAS | < -0.25
LRQSGVTSDLHLADTNGRGC | < -0.25
AIVFESP | < -0.25
WLFYSCQSIFVIKGRPVGIQ | < -0.25
VICKTRGMGKDSCLCVNRC | < -0.25
WRLPRVGGGVLLFDDSLGAP | < -0.25
KSANAPWDELPTSPVLPLHE | < -0.25
VSIQNGRAACIWVSYCRSRA | < -0.25
EHVSA | < -0.25
VVLPA | < -0.25
PRPVSEELSSGTVGVFSVLA | < -0.25
VIL | < -0.25
SISASFAYLTGSAEL | < -0.25
GNTPGSG | < -0.25
ESHRGSRSPTTKEPDNYRC | < -0.25
PRSYPH | < -0.25
CVFYELQFRSR | < -0.25
TVSCGSGEYNRLEGEGTWFW | < -0.25
DVVNSTRLVDNSVVLVPGTQ | < -0.25
GVAVSA | < -0.25
PSEFLTAARNKGSNAHD | -0.246

A run of entries of the results above, as a working copy:
Substance | growth estimate
GVRS | < -0.25
GLTAVCSNS | < -0.25
TYASDNRVR | < -0.25
LGGMLNLKTPISLRVVVTQN | < -0.25
ICMNVAATAIGKGNTR | < -0.25
QEMYILPGGPGPPAGLKIRG | < -0.25
EGVSTHEVGR | < -0.25
AFHVKRTNRRPT | < -0.25
PVFAGSCRVAV | < -0.25
LLKFVCSKAYNASMWQPSGQ | < -0.25
SSWKACANANAGGRSRTVQP | < -0.25
TAGLGLSDSEVVRLR | < -0.25
VRDPEVTCPGGAKTFGVTRS | < -0.25
VED | -0.25
CLCPILVPE | -0.198
GRRTFGS | < -0.25
TYEMIRTNIFCIGARRLIHT | < -0.25
YRVIWCHAGFRTLPRVNVVC | < -0.25
NERGGRICGRHLEIAHLLEP | < -0.25
RILSERFPTAGPRYHAS | < -0.25
LRQSGVTSDLHLADTNGRGC | < -0.25
AIVFESP | < -0.25
WLFYSCQSIFVIKGRPVGIQ | < -0.25
VICKTRGMGKDSCLCVNRC | < -0.25
WRLPRVGGGVLLFDDSLGAP | < -0.25
KSANAPWDELPTSPVLPLHE | < -0.25
VSIQNGRAACIWVSYCRSRA | < -0.25
EHVSA | < -0.25
VVLPA | < -0.25
PRPVSEELSSGTVGVFSVLA | < -0.25
VIL | < -0.25
SISASFAYLTGSAEL | < -0.25
GNTPGSG | < -0.25
ESHRGSRSPTTKEPDNYRC | < -0.25
PRSYPH | < -0.25
CVFYELQFRSR | < -0.25
TVSCGSGEYNRLEGEGTWFW | < -0.25

The list goes on.

Substance | growth estimate
VSA | < -0.25
NPLTLSYEPARVIGS | < -0.25
PNDRALTPLRCF | < -0.25
LYALVTFRD | < -0.25
TQENWSGGSLDTTRP | < -0.25
LRSTANGRALIGQMVPSRMR | < -0.25
SVRGSP | < -0.25
FGAVVTPLARVRGFRHQRRL | < -0.25
VWPSFPALSKPYKSLRDFCD | < -0.25
CLITEGRRANC | < -0.25
QNTAE | < -0.25
MGCDIPFHTVLVKRTSVSRV | < -0.25
LHHRNKRSGKALRGRHAQET | < -0.25
VSGGHALRDEVKCRCGRRLR | < -0.25
DCCFHCGRIEPGVIISDAFH | < -0.25
FRGVKFVGIAGTVRIFSPWA | < -0.25
VVSGVGQVSKGRVGSEGGLL | < -0.25
PMTSSLVERLHCIRNGHRLL | < -0.25
CTEVMPVNRSECIQNTGKGK | < -0.25
YDRHFSGK | < -0.25
RHRVDFGPIVSIR | < -0.25
EFPRFGPGMRNSGGHTT | -0.231
CRGVVAETPDPSRIRKASFP | < -0.25
SSPQKTWELRKRTCG | < -0.25
AGSEPWEFT | < -0.25

Substance | growth estimate
PGGRDMSDAA | < -0.25
TVRIKHATSLRHYPSYVYKY | < -0.25
QRERSACEIRWPTARLQWRG | < -0.25
YWGKRAVDWPCEL | < -0.25
EKEMLFSSLIKGDDPIHISP | < -0.25
FGMRRRIGHRMTRSRKRRII | < -0.25
ERYISKC | < -0.25
HWIEISLSAMGSAGVGRTSG | < -0.25
SRAGPTRARGPISHLPEQHA | < -0.25
IAVR | < -0.25
GSSLASVQS | < -0.25
HLERVSTSLQSL | < -0.25
QDICACAKHAPE | < -0.25
NTFKAWVGEGGIM | < -0.25
INVVLLALGPNSGHSRSSRS | < -0.25
PTKQGVWCE | < -0.25
DTMPGGT | < -0.25
SQRRISRSPSGTGLREERGP | < -0.25
IMGYVLMICRHSRWMVGGLT | < -0.25
IPPYRLSRHTTCATLWFLTG | < -0.25
QGVDTSRGGGIPYNIPTYDR | < -0.25
GMMLTSEAARAVRCASWTCR | < -0.25
RRHNETQQYDIFAGQTSYGR | < -0.25
WVTPYIKQLLSMAARVVPCA | < -0.25
LGGDDDTCWGKFSHITVLAP | < -0.25

Substance | growth estimate
VLPWSSPGNLVSAIDRSLRY | < -0.25
LSWSFYGNR | < -0.25
HRSQ | < -0.25
SNSRTGLVVTSSS | < -0.25
SLI | < -0.25
FTPTRTRLRVV | < -0.25
GTESIVANRGP | < -0.25
VNEPSASPRVRHVALPLVSA | < -0.25
LAFSENYGHSRSANCVEAGI | < -0.25
DISKSVGETEQEF | < -0.25
TAIFFAVNIMRSGRCNRRTR | < -0.25
RIRMSPEAAFLAS | < -0.25
PTSG | < -0.25
SGLNCALGSAYRPFLED | < -0.25
VLHTGQLSVQVPLLGV | < -0.25
GGANTPGAEWMVVAYVRTLR | < -0.25
GGLKFCTLVP | < -0.25
IPTYLRQPI | < -0.25
PVP | < -0.25
PMLLEGVERDIVLVSDPVSR | < -0.25
ISGS | < -0.25
